Experimental data from patent US6331394.

Chains of the proteins cited; added tags and fusions are not shown. Chains listed by the source or under a name are the forms on record and can include a tag or linker.
integrin alphaVbeta3 (Homo sapiens), one chain, as listed by the source, chain 1 of 2: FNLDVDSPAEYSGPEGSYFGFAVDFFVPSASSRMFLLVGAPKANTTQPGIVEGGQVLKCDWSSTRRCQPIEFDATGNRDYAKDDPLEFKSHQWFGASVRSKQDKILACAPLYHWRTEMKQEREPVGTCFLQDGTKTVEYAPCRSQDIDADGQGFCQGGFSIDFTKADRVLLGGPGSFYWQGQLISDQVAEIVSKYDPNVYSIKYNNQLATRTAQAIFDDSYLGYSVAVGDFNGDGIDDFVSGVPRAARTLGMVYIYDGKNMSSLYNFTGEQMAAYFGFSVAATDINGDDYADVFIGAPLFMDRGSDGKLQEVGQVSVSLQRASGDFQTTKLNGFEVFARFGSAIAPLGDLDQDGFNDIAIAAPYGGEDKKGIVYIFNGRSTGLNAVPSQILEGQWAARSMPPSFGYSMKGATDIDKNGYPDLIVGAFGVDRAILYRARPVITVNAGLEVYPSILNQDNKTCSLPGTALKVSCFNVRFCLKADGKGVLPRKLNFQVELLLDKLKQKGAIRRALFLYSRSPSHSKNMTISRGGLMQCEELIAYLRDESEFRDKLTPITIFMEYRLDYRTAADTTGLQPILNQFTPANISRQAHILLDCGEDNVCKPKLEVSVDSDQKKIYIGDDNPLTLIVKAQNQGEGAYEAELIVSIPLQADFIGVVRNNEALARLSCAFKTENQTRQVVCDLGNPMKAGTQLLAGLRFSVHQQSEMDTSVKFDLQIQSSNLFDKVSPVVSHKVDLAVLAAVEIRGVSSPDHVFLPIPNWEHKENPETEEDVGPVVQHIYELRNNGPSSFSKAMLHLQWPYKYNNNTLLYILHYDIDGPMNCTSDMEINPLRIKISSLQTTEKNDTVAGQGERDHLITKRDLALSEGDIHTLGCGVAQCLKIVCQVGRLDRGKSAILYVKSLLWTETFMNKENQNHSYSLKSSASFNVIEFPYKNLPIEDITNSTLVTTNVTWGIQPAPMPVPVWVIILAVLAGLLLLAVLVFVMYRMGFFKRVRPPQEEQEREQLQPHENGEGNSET
integrin alphaVbeta3 (Homo sapiens), one chain, as listed by the source, chain 2 of 2: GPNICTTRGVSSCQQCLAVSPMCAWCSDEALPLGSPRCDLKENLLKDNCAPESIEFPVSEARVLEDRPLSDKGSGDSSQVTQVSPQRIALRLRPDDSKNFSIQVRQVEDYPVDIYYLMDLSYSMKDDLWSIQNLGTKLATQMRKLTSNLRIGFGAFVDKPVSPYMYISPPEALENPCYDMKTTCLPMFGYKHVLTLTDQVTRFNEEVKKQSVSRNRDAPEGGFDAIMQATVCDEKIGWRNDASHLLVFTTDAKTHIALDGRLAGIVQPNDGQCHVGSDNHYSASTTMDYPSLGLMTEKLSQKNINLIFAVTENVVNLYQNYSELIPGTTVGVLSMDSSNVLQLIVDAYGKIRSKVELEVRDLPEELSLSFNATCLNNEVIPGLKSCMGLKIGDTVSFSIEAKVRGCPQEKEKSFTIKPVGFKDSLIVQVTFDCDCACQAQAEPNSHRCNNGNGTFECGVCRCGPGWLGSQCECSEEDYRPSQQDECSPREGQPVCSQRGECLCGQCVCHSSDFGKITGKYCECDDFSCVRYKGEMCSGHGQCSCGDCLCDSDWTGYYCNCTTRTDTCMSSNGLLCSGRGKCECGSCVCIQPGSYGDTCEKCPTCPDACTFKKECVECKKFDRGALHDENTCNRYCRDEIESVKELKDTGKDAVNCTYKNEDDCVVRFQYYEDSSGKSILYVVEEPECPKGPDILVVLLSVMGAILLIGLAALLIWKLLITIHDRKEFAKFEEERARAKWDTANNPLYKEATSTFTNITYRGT

Tested on: integrin alphaVbeta3 (Homo sapiens)
Assay: ELONA
Conditions: immobilized integrin, label: 5'-biotin, letters built from the parent sequence and the stated change
[1] = 2'-F on all C and U [2'-F on all C and U: 1,2,3,4,6,8,9,11,18,19,20,22,24,28,32,33,35,36,37], Mg/Ca/Mn buffer, 37 C, purified native protein
[2] = 2'-F on all C and U [2'-F on all C and U], Mg/Ca/Mn buffer, 37 C, purified native protein
[3] = 2'-F on all C and U [2'-F on all C and U: 1,2,3,6,8,9,11,12,19,20,21,23,25,29,33,34,36,37,38], Mg/Ca/Mn buffer, 37 C, purified native protein
[4] = 2'-F on all C and U [2'-F on all C and U: 1,2,3,6,8,9,11,12,13,19,20,21,23,25,29,33,34,36,37,38], Mg/Ca/Mn buffer, 37 C, purified native protein

Sequence: UUCAACGCUGUGAAGGGCUUAUAUGAGCGGAUUACCC [15.18]
- Kd (2'-F on all C and U [2'-F on all C and U: 1,2,3,6,8,9,11,18,19,20,22,24,28,32,33,35,36,37], Mg/Ca/Mn buffer, pH 7.5, 37 C, purified native protein): 2 nM

Sequence: UUCUACGCUGUGAAGGGCUUAUAUGAGCGGAUUACCC [17.2]
- Kd [1]: 2 nM

Sequence: CGCCGUUAUCACGACGUGCGUUCUGGGCGGUACUCGCGCA [15.43]
- Kd (2'-F on all C and U [2'-F at all C and U: 1,3,4,6,7,9,10,12,15,17,19,21,22,23,24,28,31,33,34,35,37,39], Mg/Ca/Mn buffer, 37 C, purified native protein): 45 nM

Sequence: UUCUACGCUGUGAAGGGCUUAUAUGAGCGAAUUACCC [17.11]
- Kd [1]: 4 nM

Sequence: UUCGACGCUGUGAAGGGCUUAUAUGAGCGGAUACACCC [17.5]
- Kd (2'-F on all C and U [2'-F on all C and U: 1,2,3,6,8,9,11,18,19,20,22,24,28,32,34,36,37,38], Mg/Ca/Mn buffer, 37 C, purified native …): 5 nM

Sequence: UUCUACGCUGUGAAGGGCUUAUACGAGCGGAUUACCC [17.7]
- Kd [1]: 6 nM

Sequence: UUCGACGCUGUUGAAGGGCUUAUACGAGCGGAUUACCC [15.8]
- Kd [2]: 5 nM

Sequence: UUCAACGCUGUCAAAGGGCUUAUAUAAGCGGAUUACCC [17.1]
- Kd [3]: 380 nM

Sequence: UUCGACGCUGUUCAAGGGCUUAUAUGAGCGCGUUAUACCC [7.54]
- Kd [2]: 230 nM

Sequence: UUCAACAUUGUCCAAGGGCUUAUAUGAGCGGAUUACCC [15.14]
- Kd [4]: 6 nM

Sequence: UUCAACGUUGUCAAAGGGCUUAUACGGGCGGAUUACCC [15.17]
- Kd [3]: 4 nM

Sequence: UUCAACGAUGUUGAGGGGCUUAUAUGAGCGCAUUAUACCC [7.77]
- Kd [2]: 770 nM

Sequence: UUCUACGUUGUUUAAGGGCUUAUAUGAGCGCAUUAUACCC [7.3]
- Kd (2'-F on all C and U [2'-F on all C and U], 37 C, listing 3' fixed region lacks 2 nt relative to Table 1, purified native protein): 22 nM

Sequence: UUCAACGUUGUCUAAGGGCUUAUAUGAGCGGAUUACCC [17.8]
- Kd [4]: 18 nM

Sequence: UUCAACGCUGUCCAAGGGCUUAUAUGAGCGCAUUAUACCC [15.20]
- Kd (2'-F on all C and U [2'-F on all C and U: 1,2,3,6,8,9,11,12,13,19,20,21,23,25,29,31,33,34,36,38,39,40], Mg/Ca/Mn buffer, 37 C, purified native protein): 20 nM

Sequence: UUCAACGCUGUCCUAGGGCUUAUAUGAGCGCAGGAUACCC [15.53]
- Kd (2'-F on all C and U [2'-F on all C and U: 1,2,3,6,8,9,11,12,13,14,19,20,21,23,25,29,31,36,38,39,40], Mg/Ca/Mn buffer, 37 C, purified native protein): 70 nM

Sequence: UUCAACGUUGUCAAAGGGCUUAUAUGAGCGGAUUACCC [15.2]
- Kd [2]: 6 nM

Sequence: UUCUACGAUGUCAAAGGGCUUAUAUGAGCGGAUUACCC [15.7]
- Kd [2]: 5 nM

Sequence: UUCAACGCUGUUCAAGGGCUUAUAUGAGCGGAUUACCC [15.10]
- Kd [4]: 20 nM

Sequence: UUCAACGCUGUCCAAGGGCUUAUAUGAGCGCGUUAUACCC [7.38]
- Kd [2]: 49 nM

For at least one entry, the source does not settle the construct or the ends of the probe.
